The source of these data is PMC6748115.

Chains of the proteins cited; added tags and fusions are not shown.
UniProt P40336: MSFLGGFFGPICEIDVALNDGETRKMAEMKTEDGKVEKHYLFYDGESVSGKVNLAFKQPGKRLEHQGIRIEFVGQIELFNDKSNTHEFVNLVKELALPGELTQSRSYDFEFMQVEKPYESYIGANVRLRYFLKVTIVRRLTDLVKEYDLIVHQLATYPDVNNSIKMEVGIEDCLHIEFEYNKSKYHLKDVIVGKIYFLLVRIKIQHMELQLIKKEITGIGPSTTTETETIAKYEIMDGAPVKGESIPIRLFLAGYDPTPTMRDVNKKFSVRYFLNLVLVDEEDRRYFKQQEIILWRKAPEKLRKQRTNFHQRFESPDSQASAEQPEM

No constants are given. Whether binding was seen depends on the method and setting. In cells and extracts the contact can be indirect. Some entries that bind do so weakly or less than the wild type.

The assay deals with Vps26a (endogenous, mouse embryonic stem cells) (mouse (endogenous in mouse ESCs)) (UniProt P40336). The assay can be described thus: co-IP; Vps26a immunoprecipitation (3 ug antibody overnight at 4 C, protein G magnetic beads) from lysates of WT mouse ESCs during neural differentiation for 0 or 6 days; anti-Nox4 immunoblot; IgG and Vps26a-/- ESCs as controls.

B1: Nox4 (endogenous, mouse embryonic stem cells) (enzyme, UniProt Q9JHI8 1-578)
chain: MAVSWRSWLANEGVKHLCLLIWLSLNVLLFWKTFLLYNQGPEYYYIHQMLGLGLCLSRASASVLNLNCSLILLPMCRTVLAYLRGSQKVPSRRTRRLLDKSKTLHITCGVTICIFSGVHVAAHLVNALNFSVNYSEDFLELNAARYQNEDPRKLLFTTIPGLTGVCMVVVLFLMVTASTYAIRVSNYDIFWYTHNLFFVFYMLLLLHVSGGLLKYQTNVDTHPPGCISLNQTSSQNMSIPDYVSEHFHGSLPRGFSKLEDRYQKTLVKICLEEPKFQAHFPQTWIWISGPLCLYCAERLYRCIRSNKPVTIISVINHPSDVMELRMIKENFKARPGQYIILHCPSVSALENHPFTLTMCPTETKATFGVHFKVVGDWTERFRDLLLPPSSQDSEILPFIHSRNYPKLYIDGPFGSPFEESLNYEVSLCVAGGIGVTPFASILNTLLDDWKPYKLRRLYFIWVCRDIQSFQWFADLLCVLHNKFWQENRPDFVNIQLYLSQTDGIQKIIGEKYHTLNSRLFIGRPRWKLLFDEIAKCNRGKTVGVFCCGPSSISKTLHSLSNRNNSYGTKFEYNKESFS
Take B1: the binding entry is reported as “binds”.
